In patent US20240199552A1, “AMIDE COMPOUND AND USE THEREOF” (Metisa Biotechnology Co., Ltd, priority 2021, published 2024):
Some entries share one result that the patent states for a list of compounds.

Columns and labels:
American dog tick = assay: Insecticidal experiment on American dog tick, thin film in culture dish; type: in vivo; details: treatment dosage 1 μg/cm^2, 1st-nymphs, after 24 h
[1] = test system: Franklinella occidentalis; assay: Insecticidal activity against Franklinella occidentalis nymphs, sprayed bean leaves; type: in vivo; details: 100 mg/L, after 72 h
Experimental: After the compound to be determined was dissolved in a mixed solvent of acetone/methanol (1:1), it was diluted with water containing 0.1% (wt) Tween-80 to a desired concentration.
Mythimna separata, Diamondback moth, Chilo suppressalis, Spodoptera exigua, Myzus persicae, and Franklinella occidentalis were used as targets, and the activity was tested by an Airbrush spray method.
Determination method: fresh bean leaves cultivated in a greenhouse were selected, a hand-held Airbrush sprayer was used to spray uniformly, each treatment was 1 mL, and after being air-dried naturally, the leaves were placed in a finger-shaped tube. Neat and healthy Franklinella occidentalis nymphs were introduced, there were 15 nymphs for each treatment, 3 replicates were set for the experiment, and water treatment was set as a blank control. After the treatment, the leaves were put into an indoor culture room for culture at 24° C., a relative humidity of 60-70%, and natural light. After 72 h, the number of live insects was investigated and the mortality rate was calculated.

Compound	mortality rate, American dog tick (American dog tick)	mortality rate against Franklinella occidentalis [1]
C=CCN(C(=O)c1ccccc1)c1cccc(C(=O)Nc2c(Br)cc(C(F)(C(F)(F)F)C(F)(F)F)cc2C(F)(F)F)c1F [Compound 3]	more than 90%	more than 90%
C=CCN(C(=O)c1ccccc1)c1cccc(C(=O)Nc2c(I)cc(C(F)(C(F)(F)F)C(F)(F)F)cc2C(F)(F)F)c1F [Compound 4]	more than 90%	more than 90%
C=CCN(C(=O)c1ccc(F)cc1)c1cccc(C(=O)Nc2c(Br)cc(C(F)(C(F)(F)F)C(F)(F)F)cc2C(F)(F)F)c1F [Compound 7]	more than 90%	more than 90%
C=CCN(C(=O)c1ccc(F)cc1)c1cccc(C(=O)Nc2c(I)cc(C(F)(C(F)(F)F)C(F)(F)F)cc2C(F)(F)F)c1F [Compound 8]	more than 90%	more than 90%
C=CCN(C(=O)c1ccc(C#N)cc1)c1cccc(C(=O)Nc2c(Br)cc(C(F)(C(F)(F)F)C(F)(F)F)cc2C(F)(F)F)c1F [Compound 11]	more than 90%	more than 90%
C=CCN(C(=O)c1ccc(C#N)cc1)c1cccc(C(=O)Nc2c(I)cc(C(F)(C(F)(F)F)C(F)(F)F)cc2C(F)(F)F)c1F [Compound 12]	more than 90%	more than 90%
C=CCN(C(=O)c1ccc(F)nc1)c1cccc(C(=O)Nc2c(Br)cc(C(F)(C(F)(F)F)C(F)(F)F)cc2C(F)(F)F)c1F [Compound 19]	more than 90%	more than 90%
C=CCN(C(=O)c1ccc(F)nc1)c1cccc(C(=O)Nc2c(I)cc(C(F)(C(F)(F)F)C(F)(F)F)cc2C(F)(F)F)c1F [Compound 20]	more than 90%	more than 90%
C=CCN(C(=O)c1ccc(C#N)nc1)c1cccc(C(=O)Nc2c(Br)cc(C(F)(C(F)(F)F)C(F)(F)F)cc2C(F)(F)F)c1F [Compound 23]	more than 90%	more than 90%
C=CCN(C(=O)c1ccc(C#N)nc1)c1cccc(C(=O)Nc2c(I)cc(C(F)(C(F)(F)F)C(F)(F)F)cc2C(F)(F)F)c1F [Compound 24]	more than 90%	more than 90%
C=CCN(C(=O)c1ccc(C(F)(F)F)nc1)c1cccc(C(=O)Nc2c(Br)cc(C(F)(C(F)(F)F)C(F)(F)F)cc2C(F)(F)F)c1F [Compound 27]	more than 90%	more than 90%
C=CCN(C(=O)c1ccc(C(F)(F)F)nc1)c1cccc(C(=O)Nc2c(I)cc(C(F)(C(F)(F)F)C(F)(F)F)cc2C(F)(F)F)c1F [Compound 28]	more than 90%	more than 90%
C#CCN(C(=O)c1ccccc1)c1cccc(C(=O)Nc2c(Br)cc(C(F)(C(F)(F)F)C(F)(F)F)cc2C(F)(F)F)c1F [Compound 31]	more than 90%	more than 90%
C#CCN(C(=O)c1ccccc1)c1cccc(C(=O)Nc2c(I)cc(C(F)(C(F)(F)F)C(F)(F)F)cc2C(F)(F)F)c1F [Compound 32]	more than 90%	more than 90%
C#CCN(C(=O)c1ccc(F)cc1)c1cccc(C(=O)Nc2c(Br)cc(C(F)(C(F)(F)F)C(F)(F)F)cc2C(F)(F)F)c1F [Compound 35]	more than 90%	more than 90%
C#CCN(C(=O)c1ccc(F)cc1)c1cccc(C(=O)Nc2c(I)cc(C(F)(C(F)(F)F)C(F)(F)F)cc2C(F)(F)F)c1F [Compound 36]	more than 90%	more than 90%
C#CCN(C(=O)c1ccc(C#N)cc1)c1cccc(C(=O)Nc2c(Br)cc(C(F)(C(F)(F)F)C(F)(F)F)cc2C(F)(F)F)c1F [Compound 39]	more than 90%	more than 90%
C#CCN(C(=O)c1ccc(C#N)cc1)c1cccc(C(=O)Nc2c(I)cc(C(F)(C(F)(F)F)C(F)(F)F)cc2C(F)(F)F)c1F [Compound 40]	more than 90%	more than 90%
C#CCN(C(=O)c1ccc(F)nc1)c1cccc(C(=O)Nc2c(Br)cc(C(F)(C(F)(F)F)C(F)(F)F)cc2C(F)(F)F)c1F [Compound 47]	more than 90%	more than 90%
C#CCN(C(=O)c1ccc(F)nc1)c1cccc(C(=O)Nc2c(I)cc(C(F)(C(F)(F)F)C(F)(F)F)cc2C(F)(F)F)c1F [Compound 48]	more than 90%	more than 90%
C#CCN(C(=O)c1ccc(C#N)nc1)c1cccc(C(=O)Nc2c(Br)cc(C(F)(C(F)(F)F)C(F)(F)F)cc2C(F)(F)F)c1F [Compound 51]	more than 90%	more than 90%
C#CCN(C(=O)c1ccc(C#N)nc1)c1cccc(C(=O)Nc2c(I)cc(C(F)(C(F)(F)F)C(F)(F)F)cc2C(F)(F)F)c1F [Compound 52]	more than 90%	more than 90%
C#CCN(C(=O)c1ccc(C(F)(F)F)nc1)c1cccc(C(=O)Nc2c(Br)cc(C(F)(C(F)(F)F)C(F)(F)F)cc2C(F)(F)F)c1F [Compound 55]	more than 90%	more than 90%
C#CCN(C(=O)c1ccc(C(F)(F)F)nc1)c1cccc(C(=O)Nc2c(I)cc(C(F)(C(F)(F)F)C(F)(F)F)cc2C(F)(F)F)c1F [Compound 56]	more than 90%	more than 90%
